Measurements from article PMC9820335.
Read-outs that look alike come from different tables or passages of the source. Results are given in words; binding and its absence hold for the method and conditions named. In cells and extracts the contact can be indirect. Some binding calls cover weakened binding; strength is not graded here. Sequences can lack the tags named with a protein.

Chains of the proteins cited; added tags and fusions are not shown.
UniProt O60260: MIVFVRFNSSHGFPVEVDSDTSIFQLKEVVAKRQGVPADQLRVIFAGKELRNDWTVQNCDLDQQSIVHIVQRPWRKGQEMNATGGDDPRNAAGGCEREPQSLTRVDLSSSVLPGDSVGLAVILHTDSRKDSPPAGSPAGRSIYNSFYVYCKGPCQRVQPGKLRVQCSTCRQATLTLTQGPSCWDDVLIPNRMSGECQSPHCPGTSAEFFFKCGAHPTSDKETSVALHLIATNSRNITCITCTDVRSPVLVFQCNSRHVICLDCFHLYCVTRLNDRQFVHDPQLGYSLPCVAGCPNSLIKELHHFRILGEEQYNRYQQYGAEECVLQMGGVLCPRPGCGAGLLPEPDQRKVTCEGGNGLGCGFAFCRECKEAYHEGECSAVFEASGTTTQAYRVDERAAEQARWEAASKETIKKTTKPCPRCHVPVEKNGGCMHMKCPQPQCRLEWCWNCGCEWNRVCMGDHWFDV

T1: FLAG-ERRγ (estrogen-related receptor γ, wild type) (UniProt P62508)
T1 sequence: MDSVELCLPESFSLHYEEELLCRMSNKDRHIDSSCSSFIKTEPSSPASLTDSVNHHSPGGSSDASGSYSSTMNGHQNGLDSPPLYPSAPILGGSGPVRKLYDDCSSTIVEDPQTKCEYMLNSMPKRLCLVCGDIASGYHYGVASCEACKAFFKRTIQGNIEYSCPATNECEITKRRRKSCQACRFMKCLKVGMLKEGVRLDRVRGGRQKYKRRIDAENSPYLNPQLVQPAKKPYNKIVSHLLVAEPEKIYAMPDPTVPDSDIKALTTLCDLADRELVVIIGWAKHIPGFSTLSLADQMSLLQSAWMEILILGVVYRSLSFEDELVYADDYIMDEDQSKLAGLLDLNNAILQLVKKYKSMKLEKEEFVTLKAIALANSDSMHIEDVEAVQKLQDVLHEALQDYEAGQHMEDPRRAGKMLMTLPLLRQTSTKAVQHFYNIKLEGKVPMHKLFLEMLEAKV

T2: FLAG-ERRγ-L449A/L451A (UniProt P62508)
T2 sequence: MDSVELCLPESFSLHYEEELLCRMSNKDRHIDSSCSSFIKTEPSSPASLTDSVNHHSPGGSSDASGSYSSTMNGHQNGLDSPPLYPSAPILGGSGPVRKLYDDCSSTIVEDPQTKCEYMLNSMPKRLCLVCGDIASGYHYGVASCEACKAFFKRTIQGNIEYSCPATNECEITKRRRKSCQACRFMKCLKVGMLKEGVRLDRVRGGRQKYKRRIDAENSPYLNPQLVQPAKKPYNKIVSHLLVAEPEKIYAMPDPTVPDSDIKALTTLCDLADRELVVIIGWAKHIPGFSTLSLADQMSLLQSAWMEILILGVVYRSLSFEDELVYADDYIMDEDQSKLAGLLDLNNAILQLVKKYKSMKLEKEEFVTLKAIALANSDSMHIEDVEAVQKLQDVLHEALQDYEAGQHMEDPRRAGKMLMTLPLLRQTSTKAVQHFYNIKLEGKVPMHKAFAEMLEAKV


Legend:
Test in all cases: co-IP; 293T cells co-transfected, treated with vehicle or GSK5182 (10 µM) for 18 h; lysates immunoprecipitated with anti-FLAG (FLAG-ERRγ forms as bait), immunoblotting for the tagged partner
[1] = target: T1, FLAG-ERRγ (estrogen-related receptor γ, wild type)
[2] = target: T1, FLAG-ERRγ (estrogen-related receptor γ, wild type); remark: listed apart in the source
[3] = target: T2, FLAG-ERRγ-L449A/L451A

Molecule	binding [1]	binding [2]	binding [3]
Myc-Parkin (from UniProt O60260 1-465) (enzyme)	binds		
HA-SMILE (small heterodimer partner-interacting leucine zipper protein) (protein, UniProt Q9NS37 1-354) MRHSLTKLLAASGSNSPTRSESPEPAATCSLPSDLTRAAAGEEETAAAGSPGRKQQFGDEGELEAGRGSRGGVAVRAPSPEEMEEEAIASLPGEETEDMDFLSGLELADLLDPRQPDWHLDPGLSSPGPLSSSGGGSDSGGLWRGDDDDEAAAAEMQRFSDLLQRLLNGIGGCSSSSDSGSAEKRRRKSPGGGGGGGSGNDNNQAATKSPRKAAAAAARLNRLKKKEYVMGLESRVRGLAAENQELRAENRELGKRVQALQEESRYLRAVLANETGLARLLSRLSGVGLRLTTSLFRDSPAGDHDYALPVGKQKQDLLEEDDSAGGVCLHVDKDKVSVEFCSACARKASSSLKM		binds	binds
